These are yes or no findings as the source states them, for the method shown. Binding seen in cells or lysates may run through a third protein. Some results given as binding are weak or reduced against the parent protein; the word gives no strength. For part of these data: Sequences can lack the tags named with a protein.
What was measured:
[1] = molecular target: T1, Myc-IGSF9 (UniProt Q05BQ1); experiment: co-IP; HEK-293T cells transfected with tagged plasmids; lysates immunoprecipitated with anti-myc mouse monoclonal antibody or normal IgG, protein A/G beads, overnight at 4 °C; western blot
T1 sequence: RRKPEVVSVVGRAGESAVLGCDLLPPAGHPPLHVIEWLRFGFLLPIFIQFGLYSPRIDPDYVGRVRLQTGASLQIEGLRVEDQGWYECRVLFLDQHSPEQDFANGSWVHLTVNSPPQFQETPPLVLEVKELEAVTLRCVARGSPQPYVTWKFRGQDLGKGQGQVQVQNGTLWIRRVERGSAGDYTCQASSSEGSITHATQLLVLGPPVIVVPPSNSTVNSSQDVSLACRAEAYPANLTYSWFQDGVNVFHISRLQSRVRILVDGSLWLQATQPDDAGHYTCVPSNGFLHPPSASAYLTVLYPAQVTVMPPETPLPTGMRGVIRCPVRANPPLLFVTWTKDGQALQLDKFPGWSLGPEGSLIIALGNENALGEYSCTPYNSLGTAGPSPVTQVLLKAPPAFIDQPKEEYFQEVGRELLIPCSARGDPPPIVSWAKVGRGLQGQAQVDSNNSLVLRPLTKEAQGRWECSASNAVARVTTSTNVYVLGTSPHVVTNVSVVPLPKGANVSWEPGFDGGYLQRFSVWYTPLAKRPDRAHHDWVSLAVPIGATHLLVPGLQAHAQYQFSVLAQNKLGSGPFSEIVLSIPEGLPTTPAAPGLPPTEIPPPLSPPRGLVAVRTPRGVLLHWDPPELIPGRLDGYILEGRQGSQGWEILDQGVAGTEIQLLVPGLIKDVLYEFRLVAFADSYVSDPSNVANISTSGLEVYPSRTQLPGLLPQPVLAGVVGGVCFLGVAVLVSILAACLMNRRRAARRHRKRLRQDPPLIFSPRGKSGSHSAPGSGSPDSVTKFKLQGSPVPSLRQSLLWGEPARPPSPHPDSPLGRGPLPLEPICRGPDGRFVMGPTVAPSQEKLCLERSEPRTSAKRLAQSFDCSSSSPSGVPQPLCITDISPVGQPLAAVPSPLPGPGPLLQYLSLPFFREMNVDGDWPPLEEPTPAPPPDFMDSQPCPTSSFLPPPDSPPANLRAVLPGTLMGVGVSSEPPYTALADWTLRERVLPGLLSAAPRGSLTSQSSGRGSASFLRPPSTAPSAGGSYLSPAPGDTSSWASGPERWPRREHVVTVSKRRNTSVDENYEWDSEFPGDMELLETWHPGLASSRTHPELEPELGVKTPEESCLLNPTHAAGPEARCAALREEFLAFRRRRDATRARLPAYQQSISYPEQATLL

By UniProt entry, the sequences of proteins in these tests, tags left out.
UniProt Q05397: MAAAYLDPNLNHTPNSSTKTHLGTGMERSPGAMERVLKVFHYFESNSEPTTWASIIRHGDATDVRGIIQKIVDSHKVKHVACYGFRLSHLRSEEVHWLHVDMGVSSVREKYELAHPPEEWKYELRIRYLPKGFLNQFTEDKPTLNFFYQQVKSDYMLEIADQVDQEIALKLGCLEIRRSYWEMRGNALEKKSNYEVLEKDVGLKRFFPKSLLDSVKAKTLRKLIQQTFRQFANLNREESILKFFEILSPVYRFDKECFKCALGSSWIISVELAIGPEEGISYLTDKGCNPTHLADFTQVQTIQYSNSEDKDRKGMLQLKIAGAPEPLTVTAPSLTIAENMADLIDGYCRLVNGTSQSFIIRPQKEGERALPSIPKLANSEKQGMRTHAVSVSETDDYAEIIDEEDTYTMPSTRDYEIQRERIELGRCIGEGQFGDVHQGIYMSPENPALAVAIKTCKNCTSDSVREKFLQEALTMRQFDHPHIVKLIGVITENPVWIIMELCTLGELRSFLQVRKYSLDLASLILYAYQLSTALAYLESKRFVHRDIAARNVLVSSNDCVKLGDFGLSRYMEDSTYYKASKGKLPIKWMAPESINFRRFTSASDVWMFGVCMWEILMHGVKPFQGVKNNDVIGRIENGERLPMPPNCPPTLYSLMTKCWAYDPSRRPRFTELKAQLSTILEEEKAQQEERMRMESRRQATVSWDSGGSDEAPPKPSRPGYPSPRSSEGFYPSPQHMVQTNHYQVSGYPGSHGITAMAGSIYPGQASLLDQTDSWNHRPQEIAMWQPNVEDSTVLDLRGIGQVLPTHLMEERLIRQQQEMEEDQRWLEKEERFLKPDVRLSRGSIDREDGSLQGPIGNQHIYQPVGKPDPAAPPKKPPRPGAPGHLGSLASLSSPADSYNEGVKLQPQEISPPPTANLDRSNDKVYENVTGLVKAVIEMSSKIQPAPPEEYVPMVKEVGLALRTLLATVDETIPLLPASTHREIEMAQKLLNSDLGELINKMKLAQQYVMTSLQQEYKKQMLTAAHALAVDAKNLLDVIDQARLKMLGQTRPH

[2] = molecular target: T2, Myc-tagged IGSF9 (1-493 aa) (UniProt Q05BQ1); experiment: as above
T2 sequence: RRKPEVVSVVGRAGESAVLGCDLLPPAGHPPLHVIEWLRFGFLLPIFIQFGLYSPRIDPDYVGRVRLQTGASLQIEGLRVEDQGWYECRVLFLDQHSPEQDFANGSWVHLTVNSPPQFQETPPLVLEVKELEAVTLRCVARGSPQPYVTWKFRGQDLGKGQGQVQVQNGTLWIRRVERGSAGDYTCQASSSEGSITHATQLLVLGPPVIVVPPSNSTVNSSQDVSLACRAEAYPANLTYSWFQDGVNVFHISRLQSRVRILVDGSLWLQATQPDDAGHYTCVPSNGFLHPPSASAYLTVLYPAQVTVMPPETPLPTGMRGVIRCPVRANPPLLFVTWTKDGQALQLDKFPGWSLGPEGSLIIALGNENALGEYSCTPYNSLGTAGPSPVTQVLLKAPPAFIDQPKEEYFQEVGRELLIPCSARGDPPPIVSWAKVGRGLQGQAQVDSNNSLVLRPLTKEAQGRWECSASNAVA

[3] = molecular target: T3, Immunoglobulin superfamily 9 (IGSF9), endogenous in MCF-7 cells (human (endogenous in MCF-7)) (UniProt Q9P2J2); experiment: co-IP; endogenous proteins in MCF-7 cell lysate; IP lysis buffer, protein A/G beads, overnight at 4 °C; western blot; precipitating antibody for the endogenous experiment not told
T3 sequence: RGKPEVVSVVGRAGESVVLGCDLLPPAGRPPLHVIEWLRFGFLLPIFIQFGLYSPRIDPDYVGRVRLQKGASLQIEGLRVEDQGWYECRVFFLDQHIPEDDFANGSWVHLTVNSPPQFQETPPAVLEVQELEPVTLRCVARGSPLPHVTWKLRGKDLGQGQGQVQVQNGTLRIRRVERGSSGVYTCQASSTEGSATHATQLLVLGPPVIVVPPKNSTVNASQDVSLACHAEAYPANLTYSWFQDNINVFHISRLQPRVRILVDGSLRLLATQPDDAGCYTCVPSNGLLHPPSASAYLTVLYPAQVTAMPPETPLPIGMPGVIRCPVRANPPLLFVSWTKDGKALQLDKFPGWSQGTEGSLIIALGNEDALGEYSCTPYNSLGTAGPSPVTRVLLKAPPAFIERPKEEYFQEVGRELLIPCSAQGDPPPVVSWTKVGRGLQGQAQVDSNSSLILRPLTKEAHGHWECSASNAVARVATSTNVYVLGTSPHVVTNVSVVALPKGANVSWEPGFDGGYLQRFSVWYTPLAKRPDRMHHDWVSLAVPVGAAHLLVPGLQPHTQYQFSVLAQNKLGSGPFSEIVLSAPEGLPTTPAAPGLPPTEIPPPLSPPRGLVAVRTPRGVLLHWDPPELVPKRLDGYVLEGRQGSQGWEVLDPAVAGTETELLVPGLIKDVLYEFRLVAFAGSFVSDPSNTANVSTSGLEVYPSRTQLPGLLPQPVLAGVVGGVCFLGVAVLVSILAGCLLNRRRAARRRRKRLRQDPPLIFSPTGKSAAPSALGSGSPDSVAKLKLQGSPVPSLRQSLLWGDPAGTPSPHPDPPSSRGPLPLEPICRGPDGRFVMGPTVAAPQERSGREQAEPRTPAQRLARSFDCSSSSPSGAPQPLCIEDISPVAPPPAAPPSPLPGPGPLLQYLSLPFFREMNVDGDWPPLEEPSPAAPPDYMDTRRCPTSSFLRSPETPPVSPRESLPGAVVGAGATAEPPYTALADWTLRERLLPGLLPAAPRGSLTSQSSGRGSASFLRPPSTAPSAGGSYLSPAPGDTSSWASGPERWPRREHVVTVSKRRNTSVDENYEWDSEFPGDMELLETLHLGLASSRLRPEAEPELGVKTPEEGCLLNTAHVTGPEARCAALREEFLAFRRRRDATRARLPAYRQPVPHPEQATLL

| binding [1] | binding [2] | binding [3] | Substance |
| --- | --- | --- | --- |
| binds | binds | – | Flag-FAK (from UniProt Q05397 1-1052) (enzyme) |
| – | – | binds | Focal adhesion kinase (FAK), endogenous in MCF-7 cells (from UniProt Q05397 1-1052) (enzyme) |
